{
  "source": "patent US7892483B2",
  "about": "“Sterilization process” (CIPLA Limited, priority 2004, dated 2011)",
  "test": "Comparative impurity profile for budesonide after different methods of sterilization",
  "format": "physicochemical",
  "key": {"[1]": {"details": "Dry Heat Sterilization 180° C./10 min"}, "[2]": {"details": "Dry Heat Sterilization 180° C./20 mins"}, "[3]": {"details": "Dry Heat Sterilization 180° C./30 min"}, "[4]": {"details": "Invention (wet mass) 121° C./30 mins"}},
  "note": "At least one compound was matched to its structure with a doubt left.",
  "data": [
    {"molecule": "CCCC1O[C@@H]2C[C@H]3[C@@H]4CCC5=CC(=O)C=C[C@]5(C)[C@H]4[C@@H](O)C[C@]3(C)[C@]2(C(=O)CO)O1", "note": "(stereo partly drawn) [budesonide]", "values": [
      {"measurement": "Impurity 1,2-Dehydroepimers I and II", "setting": "[1]", "value": "0.11 % by weight of budesonide"},
      {"measurement": "Impurity 21-Dehydro Epimers I and II", "setting": "[1]", "value": "0.07 % by weight of budesonide"},
      {"measurement": "Impurity D-Homo budesonide", "setting": "[1]", "value": "0.06 % by weight of budesonide"},
      {"measurement": "Impurity Desonide", "setting": "[1]", "value": "0.10 % by weight of budesonide"},
      {"measurement": "Impurity Predisolone-16-Butyrate", "setting": "[1]", "value": "0.05 % by weight of budesonide"},
      {"measurement": "Single maximum Unknown impurity", "setting": "[1]", "value": "0.19 % by weight of budesonide"},
      {"measurement": "Total impurities", "setting": "[1]", "value": "0.9 % by weight of budesonide"},
      {"measurement": "Impurity 1,2-Dehydroepimers I and II", "setting": "[2]", "value": "0.11 % by weight of budesonide"},
      {"measurement": "Impurity 21-Dehydro Epimers I and II", "setting": "[2]", "value": "0.09 % by weight of budesonide"},
      {"measurement": "Impurity D-Homo budesonide", "setting": "[2]", "value": "0.06 % by weight of budesonide"},
      {"measurement": "Impurity Desonide", "setting": "[2]", "value": "0.1 % by weight of budesonide"},
      {"measurement": "Impurity Predisolone-16-Butyrate", "setting": "[2]", "value": "0.07 % by weight of budesonide"},
      {"measurement": "Single maximum Unknown impurity", "setting": "[2]", "value": "0.23 % by weight of budesonide"},
      {"measurement": "Total impurities", "setting": "[2]", "value": "1.03 % by weight of budesonide"},
      {"measurement": "Impurity 1,2-Dehydroepimers I and II", "setting": "[3]", "value": "0.11 % by weight of budesonide"},
      {"measurement": "Impurity 21-Dehydro Epimers I and II", "setting": "[3]", "value": "0.10 % by weight of budesonide"},
      {"measurement": "Impurity D-Homo budesonide", "setting": "[3]", "value": "0.06 % by weight of budesonide"},
      {"measurement": "Impurity Desonide", "setting": "[3]", "value": "0.09 % by weight of budesonide"},
      {"measurement": "Impurity Predisolone-16-Butyrate", "setting": "[3]", "value": "0.07 % by weight of budesonide"},
      {"measurement": "Single maximum Unknown impurity", "setting": "[3]", "value": "0.26 % by weight of budesonide"},
      {"measurement": "Total impurities", "setting": "[3]", "value": "1.12 % by weight of budesonide"},
      {"measurement": "Impurity 1,2-Dehydroepimers I and II", "setting": "Gamma-radiation 10 Kgy", "value": "0.12 % by weight of budesonide"},
      {"measurement": "Impurity 21-Dehydro Epimers I and II", "setting": "Gamma-radiation 10 Kgy", "value": "0.10 % by weight of budesonide"},
      {"measurement": "Impurity D-Homo budesonide", "setting": "Gamma-radiation 10 Kgy", "value": "0.07 % by weight of budesonide"},
      {"measurement": "Impurity Desonide", "setting": "Gamma-radiation 10 Kgy", "value": "0.11 % by weight of budesonide"},
      {"measurement": "Impurity Predisolone-16-Butyrate", "setting": "Gamma-radiation 10 Kgy", "value": "0.15 % by weight of budesonide"},
      {"measurement": "Single maximum Unknown impurity", "setting": "Gamma-radiation 10 Kgy", "value": "0.21 % by weight of budesonide"},
      {"measurement": "Total impurities", "setting": "Gamma-radiation 10 Kgy", "value": "1.21 % by weight of budesonide"},
      {"measurement": "Impurity 1,2-Dehydroepimers I and II", "setting": "Gamma-radiation 15 Kgy", "value": "0.10 % by weight of budesonide"},
      {"measurement": "Impurity 21-Dehydro Epimers I and II", "setting": "Gamma-radiation 15 Kgy", "value": "0.12 % by weight of budesonide"},
      {"measurement": "Impurity D-Homo budesonide", "setting": "Gamma-radiation 15 Kgy", "value": "0.06 % by weight of budesonide"},
      {"measurement": "Impurity Desonide", "setting": "Gamma-radiation 15 Kgy", "value": "0.09 % by weight of budesonide"},
      {"measurement": "Impurity Predisolone-16-Butyrate", "setting": "Gamma-radiation 15 Kgy", "value": "0.21 % by weight of budesonide"},
      {"measurement": "Single maximum Unknown impurity", "setting": "Gamma-radiation 15 Kgy", "value": "0.27 % by weight of budesonide"},
      {"measurement": "Total impurities", "setting": "Gamma-radiation 15 Kgy", "value": "1.42 % by weight of budesonide"},
      {"measurement": "Impurity 1,2-Dehydroepimers I and II", "setting": "Gamma-radiation 25 Kgy", "value": "0.112 % by weight of budesonide"},
      {"measurement": "Impurity 21-Dehydro Epimers I and II", "setting": "Gamma-radiation 25 Kgy", "value": "0.284 % by weight of budesonide"},
      {"measurement": "Impurity D-Homo budesonide", "setting": "Gamma-radiation 25 Kgy", "value": "0.286 % by weight of budesonide"},
      {"measurement": "Impurity Desonide", "setting": "Gamma-radiation 25 Kgy", "value": "0.044 % by weight of budesonide"},
      {"measurement": "Impurity Predisolone-16-Butyrate", "setting": "Gamma-radiation 25 Kgy", "value": "0.062 % by weight of budesonide"},
      {"measurement": "Single maximum Unknown impurity", "setting": "Gamma-radiation 25 Kgy", "value": "0.182 % by weight of budesonide"},
      {"measurement": "Total impurities", "setting": "Gamma-radiation 25 Kgy", "value": "1.298 % by weight of budesonide"},
      {"measurement": "Impurity 1,2-Dehydroepimers I and II", "setting": "[4]", "value": "0.16 % by weight of budesonide"},
      {"measurement": "Impurity D-Homo budesonide", "setting": "[4]", "value": "0.05 % by weight of budesonide"},
      {"measurement": "Impurity Desonide", "setting": "[4]", "value": "0.09 % by weight of budesonide"},
      {"measurement": "Impurity Predisolone-16-Butyrate", "setting": "[4]", "value": "0.04 % by weight of budesonide"},
      {"measurement": "Single maximum Unknown impurity", "setting": "[4]", "value": "0.05 % by weight of budesonide"},
      {"measurement": "Total impurities", "setting": "[4]", "value": "0.5 % by weight of budesonide"},
      {"measurement": "Impurity 1,2-Dehydroepimers I and II", "setting": "Non-sterile", "value": "0.11 % by weight of budesonide"},
      {"measurement": "Impurity D-Homo budesonide", "setting": "Non-sterile", "value": "0.06 % by weight of budesonide"},
      {"measurement": "Impurity Desonide", "setting": "Non-sterile", "value": "0.10 % by weight of budesonide"},
      {"measurement": "Impurity Predisolone-16-Butyrate", "setting": "Non-sterile", "value": "0.02 % by weight of budesonide"},
      {"measurement": "Single maximum Unknown impurity", "setting": "Non-sterile", "value": "0.04 % by weight of budesonide"},
      {"measurement": "Total impurities", "setting": "Non-sterile", "value": "0.37 % by weight of budesonide"}
    ]}
  ]
}
